Source: PubChem BioAssay AID1671190 (National Center for Advancing Translational Sciences (NCATS), 2021)
Hit rate of the full screen: of about 580,000 compounds, about 6,100 (1.1%) were called active. Inconclusive results, whose numbers are uncertain, are shown with a selection of clear calls. Calls follow the shape of the dose curve; as a rule, active = well fitted inhibition curve with a large enough effect; inconclusive = small, poorly fitted or top-dose-only effect, or another doubt; inactive = no such curve, though single readings can be large or run the other way. Potencies beside an inconclusive call are fits to weak or partial responses and may not hold up.

By UniProt entry, the sequences of proteins in these tests, tags left out. Where a name states a change or a piece, a line headed by the entry shows the natural chain unless it says otherwise.
UniProt P18054: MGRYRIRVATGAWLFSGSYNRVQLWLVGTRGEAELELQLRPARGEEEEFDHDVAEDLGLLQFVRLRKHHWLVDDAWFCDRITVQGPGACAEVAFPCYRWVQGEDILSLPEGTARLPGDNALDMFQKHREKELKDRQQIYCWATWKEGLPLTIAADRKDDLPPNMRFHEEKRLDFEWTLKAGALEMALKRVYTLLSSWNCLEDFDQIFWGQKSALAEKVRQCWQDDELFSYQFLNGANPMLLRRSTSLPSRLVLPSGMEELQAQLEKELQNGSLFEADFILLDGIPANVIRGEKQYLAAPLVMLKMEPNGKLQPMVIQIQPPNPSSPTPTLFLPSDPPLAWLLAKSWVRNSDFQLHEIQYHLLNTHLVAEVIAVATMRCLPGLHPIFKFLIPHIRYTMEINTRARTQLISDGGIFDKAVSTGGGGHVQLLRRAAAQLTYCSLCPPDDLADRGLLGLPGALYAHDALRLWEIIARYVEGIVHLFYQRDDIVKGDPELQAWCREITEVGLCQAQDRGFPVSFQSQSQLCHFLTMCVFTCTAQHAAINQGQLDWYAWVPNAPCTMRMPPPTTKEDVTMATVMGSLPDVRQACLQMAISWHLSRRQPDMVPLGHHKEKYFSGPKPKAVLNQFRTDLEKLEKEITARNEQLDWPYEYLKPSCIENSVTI

Biological target: Polyunsaturated fatty acid lipoxygenase ALOX12 (Homo sapiens) (UniProt P18054)
Test: Primary qHTS assay for inhibitors of human arachidonate 12S-lipoxygenase (ALOX12): Round 2
Settings: purified 12hLO, xylenol orange hydroperoxide absorbance; activity change, negative = inhibition: at 108 µM (top of the series) unless noted
In short: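 Hydroperoxide product was detected by ferrous iron/xylenol orange as the 573 to 405 nm absorbance ratio. Arachidonic acid at 40 uM (final) was turned over for 30 min at room temperature by 150 nM human 12hLO, pH 7.0 Hepes buffer, after 15 min compound preincubation.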
% is scaled to controls: 0 for no effect and ±100 for the full control effect; potency is read from the fitted curve at half-maximal effect.

| Structure (SMILES) | Potency | activity change, negative = inhibition |
| --- | --- | --- |
| CN(C)C(=O)Cc1cccc(F)c1 | inactive | – |
| S=c1[nH]c2ccc(Cl)cc2s1 | inactive | – |
| CCn1c(SCC(=O)Nc2oc(C)c3c(C)n[nH]c(=O)c23)nnc1-c1ccco1 | inconclusive: 2.24 µM [inhibitor, full curve, poor fit] | – |
| O=c1cc(O)cc(/C=C/c2ccc(O)c(O)c2)o1 | inconclusive: 3.55 µM [inhibitor, full curve, poor fit] | – |
| Cc1cccc(NC(=O)N2C3CCCC2CC(NC(=O)C(C)(C)C)C3)c1 (stereo unspecified) | inconclusive: 28.2 µM [inhibitor, single point] | – |
| COC[C@@H]1CN(C(=O)c2cccc(C)n2)C[C@H]1c1nc(C2CC2)no1 | inconclusive: 79.4 µM [inhibitor, single point] | – |
| Cn1c(=O)c2[nH]c(CCCCCCCc3nc4ccccc4[nH]3)nc2n(C)c1=O | inconclusive: 44.7 µM [inhibitor, partial curve, poor fit] | – |
| CCOC(=O)Cn1c(=O)c2c3c(sc2n(CCCN(C)C)c1=O)CC(C)CC3 (stereo unspecified) | inactive | – |
| Cc1nn(-c2ccccc2)c(C)c1NC(=O)COC(=O)c1ccc(O)cc1O | inconclusive: 50.1 µM [inhibitor, partial curve] | – |
| CCN(CC)CCCCNc1ncc2c(n1)N(C)C(=O)N(c1c(Cl)c(OC)cc(OC)c1Cl)C2 | active: 34.3 µM | – |
| Cc1ccccc1C(=O)N1CCC(C(=O)Nc2cccc(S(=O)(=O)N3CCCCC3)c2)CC1 | inconclusive: 126 µM [inhibitor, single point] | – |
| Brc1ccc2ncnc(NCc3ccccc3)c2c1 | inactive | – |
| Cc1cc(O)c(-c2n[nH]c3c2C(c2cccc(O)c2)N(Cc2ccco2)C3=O)cc1Cl (stereo unspecified) | inconclusive: 44.7 µM [inhibitor, partial curve, poor fit] | – |
| CC(C)Cc1cc(C[C@@H]2C[C@H](NC(=O)c3ccco3)C2(C)C)no1 | inactive | – |
| Cc1oc(-c2ccccc2NC(=O)C2CCC2)nc1CNC(=O)c1ccc2ccccc2c1 | inconclusive: 100 µM [inhibitor, single point] | – |
| Cc1nc(C)c(C(=O)NNS(=O)(=O)c2ccc3ccccc3c2)s1 | inactive | – |
| Cc1nc2ccc(C(=O)OCC(=O)NC(=O)NC3CC3)cc2nc1C | inconclusive: 3.98 µM [inhibitor, full curve, poor fit] | – |
| CCOC(=O)c1cc(-c2ccccc2)n(CCC(=O)N2CCN(c3ccccc3OC)CC2)c1C | inactive | – |
| Cc1c(Cl)cccc1NC(=O)COc1ncnc2ccc(Br)cc12 | inconclusive: 50.1 µM [inhibitor, partial curve, poor fit] | – |
| C=CCN(C(=O)CSc1nc2c(sc3ccccc32)c(=O)n1CCN(CC)CC)c1ccccc1 | inconclusive: 158 µM [inhibitor, partial curve, poor fit] | – |
| C[C@H]1CN([C@@H](C)CO)S(=O)(=O)c2ccc(Br)cc2O[C@H]1CN(C)C(=O)c1cccnc1 | inconclusive: 0.316 µM [inhibitor, full curve, poor fit] | – |

| Structure (SMILES) | Potency | activity change, negative = inhibition |
| --- | --- | --- |
| CCC(C(=O)NCc1ccc(C)o1)n1nc(C)c2c(C)n(-c3ccccc3)nc2c1=O (stereo unspecified) | inactive | – |
| CC(=O)Nc1ccc(S(=O)(=O)N2CCN(C(=O)c3ncoc3-c3ccccc3F)CC2)cc1 | inconclusive: 3.16 µM [inhibitor, full curve, poor fit] | – |
| COc1cc(CNCc2c[nH]c3ccccc23)cc(OC)c1 | inconclusive: 1 µM [inhibitor, full curve, poor fit] | – |
| Cc1ccc(C)c(N2N=C(C(=O)N(CC(C)C)c3c(N)n(Cc4ccccc4)c(=O)[nH]c3=O)CCC2=O)c1 | inconclusive: 44.7 µM [inhibitor, single point] | – |
| CC(Nc1nc(-c2ccc(CNC(=O)C(C)(C)C)s2)cs1)c1ccccc1 (stereo unspecified) | inconclusive: 39.8 µM [inhibitor, partial curve, poor fit] | – |
| CC(=O)N1CCC(C(=O)N2CCN3C(=O)CNC(=O)[C@H]3C2)CC1 | inconclusive: 79.4 µM [inhibitor, partial curve, poor fit] | – |
| COc1ccc(C=NN(C)C(=O)Nc2cccc(Cl)c2)cc1OC | inconclusive: 141 µM [inhibitor, partial curve, poor fit] | – |
| O=C(C[C@@H]1C/C=C\C[C@H](NC(=O)OCC2c3ccccc3-c3ccccc32)C(=O)O[C@H](c2ccccc2)CNC1=O)NCCO | inconclusive: 50.1 µM [inhibitor, partial curve, poor fit] | – |
| Cc1csc(NC(=O)c2ccc(Oc3cccc(Br)c3)nc2)n1 | inconclusive: 112 µM [inhibitor, single point] | – |
| CC(=O)C1=CCC(c2ccccc2)N(S(=O)(=O)c2ccc(Cl)cc2)C1 (stereo unspecified) | inconclusive: 50.1 µM [inhibitor, partial curve, poor fit] | – |
| COc1ccccc1N1CCN(CCCNC(=O)c2cnn(-c3cccc(Cl)c3)c2C2CCN(C(=O)OC(C)(C)C)CC2)CC1 | inconclusive: 56.2 µM [inhibitor, partial curve, poor fit] | – |
| O=C(c1cccc(F)c1)N1CCCC1c1nc(C2CCOCC2)no1 (stereo unspecified) | inconclusive: 7.94 µM [inhibitor, partial curve, poor fit] | – |
| CC1=C[C@@H](CNS(=O)(=O)c2ccc(C#N)cc2)[C@H](C(C)C)C[C@H]1CC(=O)N1CCOCC1 | inconclusive: 79.4 µM [inhibitor, partial curve, poor fit] | – |
| Cc1ccc([N+](=O)[O-])c(OCCN2CCNCC2)c1 | inconclusive: 5.62 µM [inhibitor, full curve] | – |
| Cc1cc(-c2ccco2)n(-c2ccccc2)n1 | inconclusive: 63.1 µM [inhibitor, partial curve, poor fit] | – |
| COc1cc(NC(=O)NC(C)c2c(-n3cccc3)sc3c2CCCC3)cc(OC)c1OC (stereo unspecified) | inconclusive: 50.1 µM [inhibitor, single point] | – |
| Cc1ccc(S(=O)(=O)N[C@H]2C[C@@H](c3nc(-c4ccccc4)no3)N(C)C2)cc1 | inconclusive: 70.8 µM [inhibitor, partial curve] | – |
| CC(C)[C@H](Nc1ncnc2sc3c(c12)CCCC3)C(=O)O | inconclusive: 100 µM [inhibitor, partial curve, poor fit] | – |
| CC[N+]1(CC(O)COC2CC(C)CC(C)(C)C2)CCOCC1 (stereo unspecified) | inconclusive: 79.4 µM [inhibitor, partial curve, poor fit] | – |
| Cc1ccccc1COc1ccccc1C(=O)OCc1ccc(-c2ccccc2)cc1 | inactive | – |
| Cc1cc(C)cc(NC(=S)NCc2ccc(Cl)cc2)c1 | inconclusive: 35.5 µM [inhibitor, partial curve, poor fit] | – |

Entries of single compounds, looked up by structure. Values in the order: Potency | activity change, negative = inhibition
CCC(C(=O)NCc1ccc(C)o1)n1nc(C)c2c(C)n(-c3ccccc3)nc2c1=O (stereo unspecified) as listed: inactive | –
Cc1cc(C)cc(NC(=S)NCc2ccc(Cl)cc2)c1 as listed: inconclusive: 35.5 µM [inhibitor, partial curve, poor fit] | –

An excerpt from above in order of formula weight, ascending:

| Structure (SMILES) | Potency | activity change, negative = inhibition |
| --- | --- | --- |
| CC(C)[C@H](Nc1ncnc2sc3c(c12)CCCC3)C(=O)O | inconclusive: 100 µM [inhibitor, partial curve, poor fit] | – |
| CC[N+]1(CC(O)COC2CC(C)CC(C)(C)C2)CCOCC1 (stereo unspecified) | inconclusive: 79.4 µM [inhibitor, partial curve, poor fit] | – |
| Cc1ccc(S(=O)(=O)N[C@H]2C[C@@H](c3nc(-c4ccccc4)no3)N(C)C2)cc1 | inconclusive: 70.8 µM [inhibitor, partial curve] | – |

Remaining list, next part.

| Structure (SMILES) | Potency | activity change, negative = inhibition |
| --- | --- | --- |
| CC(NC(=O)c1cccs1)c1ccccc1 (stereo unspecified) | inconclusive: 141 µM [inhibitor, single point] | – |
| COC(=O)Cc1ccc(NC(=S)NCCSc2ccc(Cl)cc2)cc1 | inconclusive: 35.5 µM [inhibitor, single point] | – |
| COc1ccc(C)cc1NC(=O)c1cccc(-n2cccc2)c1 | inconclusive: 56.2 µM [inhibitor, partial curve, poor fit] | – |
| COCCN1CC(CO)C2(CCN(C(=O)c3ccc(C(C)C)cc3)CC2)C1 (stereo unspecified) | inconclusive: 14.1 µM [inhibitor, full curve, poor fit] | – |
| Cc1ccc(CSc2nc3c(cc2C#N)C(=O)CC(C)(C)C3)cc1 | inconclusive: 5.01 µM [inhibitor, full curve] | – |
| COc1ccc(CCN2C(=O)C3C4CC(C5C(C(=O)NN)=NOC45)C3C2=O)cc1OC (stereo unspecified) | inconclusive: 2.24 µM [inhibitor, partial curve, poor fit] | – |
| CCOC(=O)c1cnn(-c2nc(-c3ccc(C)cc3)cs2)c1C(F)(F)F | inconclusive: 2.24 µM [inhibitor, partial curve, poor fit] | – |
| CC(=O)c1cccc(NC(=O)c2ccc3c(c2)NC(=O)C2CCCN32)c1 (stereo unspecified) | inconclusive: 11.2 µM [inhibitor, full curve] | – |
| Cc1ccc2[nH]c(=O)c(CN(Cc3ccccc3)Cc3nnnn3C3CCCC3)cc2c1 | inconclusive: 50.1 µM [inhibitor, partial curve, poor fit] | – |
| CC(C)CCC(C)NC(=S)Nc1ccc(Cl)cc1 (stereo unspecified) | inconclusive: 100 µM [inhibitor, partial curve, poor fit] | – |
| CCCCCCCCCCCCN1[C@@H](CC(=O)O)c2cc(C(F)(F)F)ccc2S1(=O)=O | inconclusive: 44.7 µM [inhibitor, partial curve, poor fit] | – |
| C#CCN1CCC(C(=O)Nc2ccccc2CC)CC1 | – | inconclusive: -31.6% [inhibitor] |
| Cc1ccc(S(=O)(=O)N2CCN(CCc3ccccc3)CC2)c(C)c1 | inconclusive: 4.47 µM [inhibitor, full curve, poor fit] | – |
| COc1ccc(N(C(=O)c2ccco2)S(=O)(=O)c2cc(OC)ccc2OC)cc1 | inactive | – |
| CN(C)CCNc1oc(-c2ccc(S(=O)(=O)N3CCCC3)cc2)nc1C#N | inactive | – |
| O=C(NCC1Cn2cccc2C(=O)N1Cc1cccnc1)c1n[nH]c(=O)c2ccccc12 (stereo unspecified) | inactive | – |
| Cc1ccc(CN(C(=S)NCC(=O)O)C2CCCCC2)cc1 | inconclusive: 31.6 µM [inhibitor, partial curve, poor fit] | – |
| COc1ccc(-c2ccnc3nc(/N=C/N(C)C)nn23)cc1 | inconclusive: 1.41 µM [inhibitor, partial curve, poor fit] | – |
| Cc1cccc(NC(=S)N(CCN(C)C)Cc2cc3cc(C)ccc3[nH]c2=O)c1 | inconclusive: 22.4 µM [inhibitor, partial curve, poor fit] | – |
